In this test the target is CD44 (human (endogenous in CL1-5)) (UniProt P16070). As to the kind of experiment: co-IP; anti-CD44 (Abcam ab157107) immunoprecipitation from RIPA lysate (1 mg protein) of CL1-5/OPN-a stable clone, protein G beads, 4°C; blots probed with anti-CD44 and anti-OPN (O17); compared with CL1-5/VC clone.

Amino acid sequences for entries named in this document (tags omitted). A change or cut given only in a name is not applied to a line headed by its entry. Residues count along the entry.
UniProt P16070, residues 21-742: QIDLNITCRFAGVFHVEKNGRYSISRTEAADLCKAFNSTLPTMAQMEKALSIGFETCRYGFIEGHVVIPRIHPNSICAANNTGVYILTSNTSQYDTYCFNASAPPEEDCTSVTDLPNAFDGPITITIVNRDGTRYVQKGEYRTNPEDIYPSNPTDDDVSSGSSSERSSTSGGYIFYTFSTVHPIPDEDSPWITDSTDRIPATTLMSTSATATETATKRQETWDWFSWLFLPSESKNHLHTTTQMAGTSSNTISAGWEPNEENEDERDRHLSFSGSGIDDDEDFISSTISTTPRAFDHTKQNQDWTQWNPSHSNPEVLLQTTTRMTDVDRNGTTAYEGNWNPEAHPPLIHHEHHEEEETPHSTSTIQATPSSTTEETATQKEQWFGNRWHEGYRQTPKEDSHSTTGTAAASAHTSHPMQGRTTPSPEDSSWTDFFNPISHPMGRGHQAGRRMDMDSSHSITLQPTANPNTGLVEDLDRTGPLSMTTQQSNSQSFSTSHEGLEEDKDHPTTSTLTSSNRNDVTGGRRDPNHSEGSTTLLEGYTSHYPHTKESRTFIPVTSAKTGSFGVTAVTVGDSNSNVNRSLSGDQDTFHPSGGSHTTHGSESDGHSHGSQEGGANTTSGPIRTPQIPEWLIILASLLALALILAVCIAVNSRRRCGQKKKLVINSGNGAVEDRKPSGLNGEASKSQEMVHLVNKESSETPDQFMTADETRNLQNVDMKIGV
UniProt P10451, residues 17-314: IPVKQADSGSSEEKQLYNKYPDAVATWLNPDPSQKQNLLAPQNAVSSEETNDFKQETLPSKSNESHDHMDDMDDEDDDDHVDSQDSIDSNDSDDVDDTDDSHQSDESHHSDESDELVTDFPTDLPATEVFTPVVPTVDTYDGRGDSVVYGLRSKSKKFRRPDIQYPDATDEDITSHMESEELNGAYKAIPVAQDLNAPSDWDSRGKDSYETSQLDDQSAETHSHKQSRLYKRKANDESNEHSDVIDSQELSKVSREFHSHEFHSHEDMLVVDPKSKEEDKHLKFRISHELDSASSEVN

These are yes or no findings as the source states them, for the method shown. In cells and extracts the contact can be indirect. Some binding calls cover weakened binding; strength is not graded here.

On to “OPN-a-Myc-His fusion protein (osteopontin splicing variant a) (from UniProt P10451-1 17-314) (ligand)”, for which the binding entry is “binds”.

For the origin of these results see PMC5342437.
